# Source: article PMC8811898, “Structural Insights into Methylated DNA Recognition by the Methyl-CpG Binding Domain of MBD6 from Arabidopsis thaliana”
# For at least one entry, the source does not settle the construct or the ends of the probe. At least one verdict rests on a figure or table, not on a statement of the authors. Protein sequences can lack the tags named with them.
# Molecular target: T1, AtMBD6 MBD domain WT (Arabidopsis thaliana) (UniProt Q9LTJ1)
# T1 sequence (looked up): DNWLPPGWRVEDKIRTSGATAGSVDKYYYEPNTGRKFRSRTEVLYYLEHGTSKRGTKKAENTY
# Assay: EMSA
# Settings: 20 uM protein, 4 uM DNA; 5-methylcytosine at position 7 of both strands (symmetric methyl-CpG); EMSA: 25 mM Tris, 25 mM boric acid, 150 mM NaCl, 5% glycerol, 1 mM DTT, 4 C, 30 min; recombinant protein; residues 78-140; protein details: GST removed by HRV3C, N-terminal GPLGS remains
sequence,measurement,value
GGTATGCGCATACC (double strand) [MG],binding result,binds
